Reference: PubChem BioAssay AID1487 (National Center for Advancing Translational Sciences (NCATS), 2009)
Some of the results follow. These are further read-outs of the screen, such as a control signal, another cell line or another target. No call is given for them. Most of these compounds were active or inconclusive in the main read-out, so they are no random draw. Words in brackets tell the shape of the fitted curve; partial curves, single points and poor fits give uncertain potencies.

Experiment: qHTS Assay for Modulators of Lamin A Splicing
Conditions: HeLa LMNA splicing GFP/RFP minigene ratio, 48 h
Outline: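 S3 HeLa stable clones carrying a lamin A-EGFP splicing minigene plus DsRed2 were seeded at 600 cells/well in Opti-MEM with 2% FBS, pin-dosed and incubated 48 h at 37°C. Acumen cytometry (488 nm) gave the GFP/RFP total-intensity ratio.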

[1] = measured here: GFP splicing reporter channel
[2] = measured here: RFP viability control channel

Compound	AC50 [1]	AC50 [2]
CSc1nnc([C@@H]2CCCN2C(=O)OC(C)(C)C)o1	0.0447 µM [rising, full curve, poor fit]	
CCNc1ncc2nc(-c3cn(C)c4ccccc34)c(=O)n(CCC#N)c2n1	3.55 µM [falling, partial curve, poor fit]	
CCOCC(=O)Nc1ccc(S(=O)(=O)NCCc2ccccc2)cc1	17.8 µM [rising, partial curve]	15.8 µM [rising, partial curve]
C[C@@]1(C2CCCC2)Cc2cc(OCC(=O)O)c(Cl)c(Cl)c2C1=O	0.251 µM [rising, full curve, poor fit]	
COc1ccc(-n2c(C)nc3c(cnn3-c3ccc(Cl)cc3)c2=O)cc1	8.91 µM [rising, partial curve]	3.16 µM [rising, full curve]
Cc1cc(Cl)ccc1OCC(=O)N1CCN(c2ncccn2)CC1		0.141 µM [rising, full curve, poor fit]
COc1ccc(C2CC(c3ccc(Br)cc3)=NN2C(=O)CSC2=NCCS2)cc1 (stereo unspecified)		12.6 µM [rising, single point]
O=C(CCOc1ccccc1)N(Cc1cccnc1)c1nc2c(F)cc(F)cc2s1	15.8 µM [falling, single point]	35.5 µM [falling, single point]
O=C(Nc1cc(C(F)(F)F)ccc1N1CCCCC1)c1cccc([N+](=O)[O-])c1		12.6 µM [rising, single point]
Cc1ccc(C(=O)OCC(=O)NC2CCCCC2)s1	10 µM [falling, single point]	10 µM [falling, partial curve]
Cc1cc(C(=O)COc2ccc(-c3nnco3)cc2)c(C)n1Cc1ccccc1		14.1 µM [rising, partial curve]
O=C(c1ccc([N+](=O)[O-])cc1[N+](=O)[O-])N1CCCC1	0.00316 µM [rising, full curve, poor fit]	
Cc1c(Cl)c([N+](=O)[O-])nn1Cc1ccc(C(=O)N/N=C\c2cc(Cl)ccc2O)o1	5.62 µM [falling, single point]	
COc1ccccc1-c1cncnc1-n1ccnc1		25.1 µM [falling, partial curve, poor fit]
O=C(/C=C/c1ccc(-c2ccccc2)o1)c1ccccc1	12.6 µM [falling, partial curve]	28.2 µM [falling, single point]
COc1ccc(C(=O)NCC(=O)OCC(=O)c2ccc3c(c2)NC(=O)CO3)cc1OC		0.00447 µM [falling, full curve, poor fit]

An excerpt of these results, comma-delimited:
Compound,AC50 [1],AC50 [2]
CSc1nnc([C@@H]2CCCN2C(=O)OC(C)(C)C)o1,"0.0447 µM [rising, full curve, poor fit]",
COc1ccccc1-c1cncnc1-n1ccnc1,,"25.1 µM [falling, partial curve, poor fit]"
O=C(/C=C/c1ccc(-c2ccccc2)o1)c1ccccc1,"12.6 µM [falling, partial curve]","28.2 µM [falling, single point]"
